Test results: PubChem BioAssay AID743266 (National Center for Advancing Translational Sciences (NCATS), 2014)
Among all 410,000 compounds or so, about 310 (0.076%) were called active. The inconclusive results got no clear call from the source; some entries with a clear call stand among them for comparison. Calls come from the whole dose curve; as a rule, active = well fitted activation curve with a large enough effect; inconclusive = small, poorly fitted or top-dose-only effect, or another doubt; inactive = no such curve, though single readings can be large or run the other way. A potency beside an inconclusive call is a rough fit, not a confirmed value.

Amino acid sequences for entries named in this document (tags omitted). A change or cut given only in a name is not applied to a line headed by its entry.
UniProt Q03431: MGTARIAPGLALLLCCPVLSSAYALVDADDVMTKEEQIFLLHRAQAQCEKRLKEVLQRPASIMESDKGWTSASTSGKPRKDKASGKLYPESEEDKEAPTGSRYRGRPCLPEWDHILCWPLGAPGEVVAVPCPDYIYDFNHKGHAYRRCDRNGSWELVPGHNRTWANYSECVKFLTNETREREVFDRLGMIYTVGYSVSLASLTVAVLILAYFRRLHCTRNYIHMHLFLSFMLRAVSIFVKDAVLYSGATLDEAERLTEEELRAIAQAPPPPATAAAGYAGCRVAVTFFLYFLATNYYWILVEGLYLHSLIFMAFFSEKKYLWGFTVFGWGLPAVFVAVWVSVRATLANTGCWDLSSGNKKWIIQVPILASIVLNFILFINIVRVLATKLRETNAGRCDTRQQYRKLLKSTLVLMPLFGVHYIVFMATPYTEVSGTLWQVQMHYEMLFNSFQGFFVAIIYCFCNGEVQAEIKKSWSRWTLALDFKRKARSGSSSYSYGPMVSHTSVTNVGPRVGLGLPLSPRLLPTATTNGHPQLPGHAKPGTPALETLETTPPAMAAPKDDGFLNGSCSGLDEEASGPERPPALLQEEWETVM

molecular target: Parathyroid hormone/parathyroid hormone-related peptide receptor (Homo sapiens) (UniProt Q03431); experiment: qHTS for PTHR1 Agonists: Primary Screen; conditions: HEK293 GP2 PTHR1 cells, GloSensor cAMP luminescence, 1 h; activation: at 115 µM (top of the series) unless noted; series mostly up to 115 µM; note: nearly all actives have a fitted effect of over 55% in size
Summary of the method: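 HEK-293-derived GP2 cells expressing PTHR1 and a GloSensor cAMP reporter, 3,000/well, plated overnight, given luciferin plus IBMX (each 0.5 mM as added) for 1 h at 37 °C, then compound for 1 h at 37 °C. Luminescence was read after 15 min at room temperature.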
Potency is the fitted concentration of half-maximal effect.

activation, inconclusive:
CCn1c(Oc2ccccc2)nc2c1c(=O)n(C)c(=O)n2C 50.5% [activator]
Cc1nn(C)c(C)c1CCNC(=O)Nc1ccccc1C(F)(F)F 36.8% [activator]
CS(=O)(=O)Nc1cccc(NC(=O)c2cccc3c(-c4ccc(F)c(F)c4)coc23)c1 -4.95% [activator]
COc1ccc(C(C(=O)NC(C)(C)C)N(C(=O)CCC(=O)Nc2cc(C)on2)c2cc(C)cc(C)c2)cc1 (stereo not given) 57.7% [activator]
COc1ccc(CCn2c(=N)c(C(=O)NCc3ccco3)cc3c(=O)n4ccccc4nc32)cc1OC 32.9% [activator]
CC(C)COc1ccc(C(=O)Nc2ccccc2[N+](=O)[O-])cc1 -54.7% [activator]
Cc1ccc(COc2ccc(-c3cc(C(F)(F)F)n4nc(C)cc4n3)cc2)cc1 43.8% [activator]
CC(C)C(=O)N1c2nc(-c3ccco3)nn2C2(CCCCC2)[C@@H]2CCCC[C@@H]21 42.5% [activator]
COCCNC(=O)CCC1CCN(C/C=C/c2ccccc2OC)CC1 92.8% [activator]
CC(C)(C)NS(=O)(=O)c1ccc(NC(=O)C2CCCCC2)cc1 -42.7% [activator]
CN(CC(=O)Nc1cc(S(=O)(=O)N2CCOCC2)ccc1Cl)C1CCS(=O)(=O)C1 (stereo not given) 32.2% [activator]
COC(=O)c1cccc(NC(N)=S)c1 25.7% [activator]
COc1ccc(OCC(=O)Nc2ccc3c(c2)nc(CCNC(=O)c2ccco2)n3C)cc1 54.4% [activator]

Potency, inactive:
COc1ccc(OC)c2c1C(=O)c1ccccc1C2=O
C/C(=N\NC(=O)c1cccc(S(=O)(=O)Nc2ccccc2Cl)c1)c1ccc(-n2ccnc2)cc1
Cc1ccc(OCC(=O)N(C)CC(=O)NCc2ccco2)c(Br)c1
CC(C)C[C@H]1CNC(=S)N1CC1CCN(CCCC2CCCC2)CC1
CC(C(=O)NCCC1=CCCCC1)c1ccc([N+](=O)[O-])cc1 (stereo not given)
CC(=O)Oc1ccc2c(c1)Oc1cc(OC(C)=O)ccc1C21OC(=O)c2ccccc21
COc1ccc(C(=O)N/C(=C/c2cccs2)C(=O)N2CCN(C)CC2)cc1
O=C1C=CC(=O)N1c1ccc2c(c1)C(NC(=O)C(F)(F)F)c1ccccc1-2 (stereo not given)
O=C(CSc1nnc(-c2cccs2)n1-c1ccccc1)N1CCCc2ccccc21
COc1cccc(OCc2cc(C(=O)NCc3ccccn3)no2)c1
Cc1ccc(OCCNCC(O)COc2ccccc2)cc1 (stereo not given)
CCOC(=O)CN(C(=O)CSc1nnc2c(n1)[nH]c1ccc(F)cc12)c1ccccc1
COc1ccc(/C=C/C(=O)NC(=S)Nc2ccccn2)cc1
CCOC(=O)c1c(-c2ccc(OC)c(OC)c2)csc1NC(=O)C1CCCO1 (stereo not given)
COc1ccc(C2CC(O)(c3ccccc3)Oc3cc(OC)c(OC)c(OC)c32)cc1 (stereo not given)
COC(=O)c1ccc(OCC(O)CNC2CCCC2)cc1 (stereo not given)
CC(C)(C)NC(=O)CN(Cc1ccc2c(c1)OCO2)C(=O)CCC(=O)Nc1nccs1
O=C(N/N=C/c1ccncc1)NC12CC3CC(CC(C3)C1)C2
CCOc1ccccc1NC(=O)Cn1c(=O)n(-c2ccccc2)c(=O)c2c1c1cc(C)ccc1n2C
O=C(Nc1nc2c(s1)CN(Cc1ccccc1)CC2)C1CCCC1
CC(C)(C)OC(=O)N1CCCN(C(c2cc3ccccc3o2)c2nnnn2C(C)(C)C)CC1 (stereo not given)
Cc1ccc(NC(=O)CSc2ncc(S(=O)(=O)c3ccc(C(C)C)cc3)c(=O)[nH]2)cc1C
CSC1=NSC2=NC(=O)/C(=C\c3cccs3)C(=N)N12
COc1c2ccoc2nc2c(OC)cccc12
O=C(NCc1ccccc1)c1cc(C2CCCCN2C(=O)c2ccccc2)on1 (stereo not given)
COc1cccc(NC(=O)CN2C(=O)CSc3ccc(S(=O)(=O)N4CCCC4)cc32)c1
COC(=O)c1ccc(C2c3c(oc4ccccc4c3=O)C(=O)N2c2nc(C)c(C(=O)OC)s2)cc1 (stereo not given)
Cc1csc(N/N=C/c2ccccc2F)n1
COc1ccc(C(=O)Nc2ccc3c(c2)OCCO3)cc1

Potency, inconclusive:
COc1cccc(CNC(=O)CN2C(=O)CCSc3ccc(S(=O)(=O)N4CCCC4)cc32)c1 50.1 µM [activator, partial curve, poor fit]
Cc1cc(C)c2c(CC(=O)NN(C)C)coc2c1 31.6 µM [activator, single point]
CCc1c(C)sc(NC(=O)OC)c1C(N)=O 12.6 µM [activator, partial curve]
CC12CC(c3ccccc3O1)N(C(=O)c1ccco1)C(=S)N2c1ccc(F)cc1 (stereo not given) 44.7 µM [activator, single point]
COc1ccc(CSc2nnc(C)n2N)cc1Br 15.8 µM [activator, partial curve]
COc1cc(Cl)c(C)cc1Nc1nc2ccccc2n2cnnc12 100 µM [activator, partial curve, poor fit]
CCOC(=O)CNC(=O)c1cc2c(=O)n3cccc(C)c3nc2n1C 79.4 µM [activator, partial curve, poor fit]
Cc1cc(C)nc(SCc2ccc(F)cc2)n1 126 µM [activator, single point]
CCc1ccc(OCC(=O)NN2Cc3ccccc3C2=N)cc1 5.62 µM [activator, full curve, poor fit]
CCCc1cc(=O)[nH]c(SCC(=O)Nc2ccc(C)cc2)n1 79.4 µM [activator, partial curve, poor fit]
O=C(NCCCNCc1ccccc1)c1ccccn1 50.1 µM [activator, single point]
Cc1ccnc(NS(=O)(=O)c2ccc(NC(=O)CSc3nc(-c4ccccc4)cc(=O)[nH]3)cc2)n1 44.7 µM [activator, partial curve, poor fit]
Cc1cccc(CCNC(=O)C2CCN(c3ncnc4c3nc3n4CCCCC3)CC2)c1 126 µM [activator, single point]
CN(C)CCCNc1cc(O)c2ncccc2c1 7.08 µM [activator, full curve, poor fit]
O=C(NCCNC(=O)c1cc(Cl)ccc1Cl)c1cnccn1 12.6 µM [activator, partial curve, poor fit]
O=C1CS/C(=C/C(=O)c2cccc(Cl)c2)N1 25.1 µM [activator, single point]
O=C(CSCc1cccc(Cl)c1)OCc1nc2ccsc2c(=O)[nH]1 126 µM [activator, single point]
COc1ccc(NC(=O)c2sc(N)nc2-c2ccccc2)cc1 50.1 µM [activator, partial curve, poor fit]
CCc1nnc2c3ccccc3nc(Nc3ccccc3OC)n12 126 µM [activator, single point]
Cc1cccc(N2CCN(S(=O)(=O)c3ccc4oc(=O)c5ncn(C)c5c4c3)CC2)c1C 126 µM [activator, single point]
Cc1ccc(N2CC(O)Cn3c2nc2c3c(=O)n(C)c(=O)n2C)cc1 (stereo not given) 126 µM [activator, single point]
CC(=O)Nc1ccc(OC(=O)c2ccc(Cl)cc2)cc1 141 µM [activator, single point]
CO/N=C(\N)c1nonc1N 50.1 µM [activator, partial curve]
Cc1cc(C)n(-c2nc3ccccc3nc2Nc2ccc(Cl)cc2Cl)n1 12.6 µM [activator, partial curve, poor fit]
O=C(Cn1nnc(-c2ccccc2-n2cnnn2)n1)NCc1ccccc1 44.7 µM [activator, single point]
Cc1cc(NC(=O)COCc2cc(-c3ccc(F)cc3)on2)ccc1Br 11.2 µM [activator, partial curve, poor fit]
CC(C)[C@H]1C=C(C(=O)O)O[C@@H](OCc2ccc(CO)cc2)C1 89.1 µM [activator, single point]
Cn1nccc1C(=O)N1CCC(Cc2ccccc2)CC1 126 µM [activator, single point]
COC(=O)c1cc(NC(=O)CCc2c(C)nc3ncnn3c2C)cc(C(=O)OC)c1 2.82 µM [activator, partial curve]
Cc1nn(CC(=O)O)c(=O)c2cc3cc(F)ccc3n12 158 µM [activator, single point]
CCCn1nnnc1NCc1cccc(OC)c1OCC 14.1 µM [activator, partial curve]
O=C(C1CCN(c2ncnc3c2nc2n3CCCCC2)CC1)N1CCCCC1 100 µM [activator, single point]
Cc1cc(Cl)c(S(=O)(=O)N2CCCCCC2)cc1OCC(=O)NC1CCCCC1 44.7 µM [activator, single point]
